Data: paper PMC7864070
Where two headings read alike, the source gives them in different places. These are yes or no findings as the source states them, for the method shown. In cells and extracts the contact can be indirect. These calls come from enrichment with a bait or labelling near it, and not all partners need be listed.

By UniProt entry, the sequences of proteins in these tests, tags left out. Where a name states a change or a piece, a line headed by the entry shows the natural chain unless it says otherwise. Chains listed by the source or under a name are the forms on record and can include a tag or linker. Residues count along the entry.
eYFP-ATZ (enhanced YFP-tagged α1-antitrypsin Z, E342K), expressed in Huh7.5 cells (P01009, form named): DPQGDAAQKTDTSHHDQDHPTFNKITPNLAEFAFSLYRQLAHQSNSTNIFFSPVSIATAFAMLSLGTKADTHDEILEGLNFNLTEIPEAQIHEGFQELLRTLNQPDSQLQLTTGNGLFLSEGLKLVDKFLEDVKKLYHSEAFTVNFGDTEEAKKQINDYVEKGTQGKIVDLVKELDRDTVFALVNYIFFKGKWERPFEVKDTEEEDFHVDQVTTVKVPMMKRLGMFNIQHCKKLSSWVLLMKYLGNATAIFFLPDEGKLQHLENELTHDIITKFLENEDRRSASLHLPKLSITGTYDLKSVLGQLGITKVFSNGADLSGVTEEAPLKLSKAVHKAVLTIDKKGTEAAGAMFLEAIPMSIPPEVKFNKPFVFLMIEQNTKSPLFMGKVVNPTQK
UniProt P34932: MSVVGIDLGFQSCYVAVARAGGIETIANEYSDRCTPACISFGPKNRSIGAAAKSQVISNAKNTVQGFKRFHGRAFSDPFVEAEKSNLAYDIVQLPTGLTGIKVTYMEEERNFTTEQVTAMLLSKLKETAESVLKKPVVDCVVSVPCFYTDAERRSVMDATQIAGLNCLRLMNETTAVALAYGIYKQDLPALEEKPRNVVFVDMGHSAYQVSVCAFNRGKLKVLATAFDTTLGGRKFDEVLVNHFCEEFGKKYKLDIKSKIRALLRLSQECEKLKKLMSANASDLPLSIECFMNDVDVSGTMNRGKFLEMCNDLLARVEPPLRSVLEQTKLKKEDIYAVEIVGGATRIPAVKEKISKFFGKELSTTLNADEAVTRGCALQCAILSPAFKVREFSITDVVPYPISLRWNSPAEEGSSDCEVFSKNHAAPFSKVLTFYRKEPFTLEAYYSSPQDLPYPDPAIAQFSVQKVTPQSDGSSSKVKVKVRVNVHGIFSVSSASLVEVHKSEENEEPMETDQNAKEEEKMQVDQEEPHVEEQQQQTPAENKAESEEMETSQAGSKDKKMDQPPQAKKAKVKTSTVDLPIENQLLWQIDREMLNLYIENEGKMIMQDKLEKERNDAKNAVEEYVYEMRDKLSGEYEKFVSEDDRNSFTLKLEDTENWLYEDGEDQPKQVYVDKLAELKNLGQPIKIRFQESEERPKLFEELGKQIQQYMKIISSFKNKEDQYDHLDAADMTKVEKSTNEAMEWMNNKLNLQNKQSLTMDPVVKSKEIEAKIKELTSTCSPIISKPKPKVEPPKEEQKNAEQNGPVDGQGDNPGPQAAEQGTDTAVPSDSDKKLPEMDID
UniProt P30101, residues 25-505: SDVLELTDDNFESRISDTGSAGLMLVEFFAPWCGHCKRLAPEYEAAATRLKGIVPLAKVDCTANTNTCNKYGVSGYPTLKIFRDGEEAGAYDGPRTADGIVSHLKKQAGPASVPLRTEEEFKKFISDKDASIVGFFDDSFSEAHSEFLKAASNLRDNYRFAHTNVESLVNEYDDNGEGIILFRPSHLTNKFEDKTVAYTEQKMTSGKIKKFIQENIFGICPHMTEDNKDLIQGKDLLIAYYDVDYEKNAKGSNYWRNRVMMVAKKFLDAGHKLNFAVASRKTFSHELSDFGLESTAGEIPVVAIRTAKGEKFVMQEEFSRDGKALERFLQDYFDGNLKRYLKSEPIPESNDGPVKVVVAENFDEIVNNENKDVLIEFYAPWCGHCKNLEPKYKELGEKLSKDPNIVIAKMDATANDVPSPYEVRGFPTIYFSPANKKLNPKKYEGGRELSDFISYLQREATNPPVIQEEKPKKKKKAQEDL
UniProt P11021, residues 19-654: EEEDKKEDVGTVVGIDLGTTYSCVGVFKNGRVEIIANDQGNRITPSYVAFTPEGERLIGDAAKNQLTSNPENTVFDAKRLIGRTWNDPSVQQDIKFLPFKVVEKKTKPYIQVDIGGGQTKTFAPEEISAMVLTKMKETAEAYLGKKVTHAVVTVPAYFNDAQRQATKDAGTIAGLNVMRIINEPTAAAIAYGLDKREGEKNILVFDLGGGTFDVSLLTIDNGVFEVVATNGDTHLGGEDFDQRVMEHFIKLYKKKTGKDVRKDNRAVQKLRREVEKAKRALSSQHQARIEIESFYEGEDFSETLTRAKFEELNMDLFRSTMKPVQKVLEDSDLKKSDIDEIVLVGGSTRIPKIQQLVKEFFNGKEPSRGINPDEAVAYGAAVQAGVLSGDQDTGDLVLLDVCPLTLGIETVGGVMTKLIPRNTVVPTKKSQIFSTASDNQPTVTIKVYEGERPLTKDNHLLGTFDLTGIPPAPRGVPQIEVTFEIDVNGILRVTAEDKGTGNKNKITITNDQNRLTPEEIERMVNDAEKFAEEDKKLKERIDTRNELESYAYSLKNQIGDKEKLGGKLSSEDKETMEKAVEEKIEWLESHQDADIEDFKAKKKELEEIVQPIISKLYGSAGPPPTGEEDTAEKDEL
UniProt P53621: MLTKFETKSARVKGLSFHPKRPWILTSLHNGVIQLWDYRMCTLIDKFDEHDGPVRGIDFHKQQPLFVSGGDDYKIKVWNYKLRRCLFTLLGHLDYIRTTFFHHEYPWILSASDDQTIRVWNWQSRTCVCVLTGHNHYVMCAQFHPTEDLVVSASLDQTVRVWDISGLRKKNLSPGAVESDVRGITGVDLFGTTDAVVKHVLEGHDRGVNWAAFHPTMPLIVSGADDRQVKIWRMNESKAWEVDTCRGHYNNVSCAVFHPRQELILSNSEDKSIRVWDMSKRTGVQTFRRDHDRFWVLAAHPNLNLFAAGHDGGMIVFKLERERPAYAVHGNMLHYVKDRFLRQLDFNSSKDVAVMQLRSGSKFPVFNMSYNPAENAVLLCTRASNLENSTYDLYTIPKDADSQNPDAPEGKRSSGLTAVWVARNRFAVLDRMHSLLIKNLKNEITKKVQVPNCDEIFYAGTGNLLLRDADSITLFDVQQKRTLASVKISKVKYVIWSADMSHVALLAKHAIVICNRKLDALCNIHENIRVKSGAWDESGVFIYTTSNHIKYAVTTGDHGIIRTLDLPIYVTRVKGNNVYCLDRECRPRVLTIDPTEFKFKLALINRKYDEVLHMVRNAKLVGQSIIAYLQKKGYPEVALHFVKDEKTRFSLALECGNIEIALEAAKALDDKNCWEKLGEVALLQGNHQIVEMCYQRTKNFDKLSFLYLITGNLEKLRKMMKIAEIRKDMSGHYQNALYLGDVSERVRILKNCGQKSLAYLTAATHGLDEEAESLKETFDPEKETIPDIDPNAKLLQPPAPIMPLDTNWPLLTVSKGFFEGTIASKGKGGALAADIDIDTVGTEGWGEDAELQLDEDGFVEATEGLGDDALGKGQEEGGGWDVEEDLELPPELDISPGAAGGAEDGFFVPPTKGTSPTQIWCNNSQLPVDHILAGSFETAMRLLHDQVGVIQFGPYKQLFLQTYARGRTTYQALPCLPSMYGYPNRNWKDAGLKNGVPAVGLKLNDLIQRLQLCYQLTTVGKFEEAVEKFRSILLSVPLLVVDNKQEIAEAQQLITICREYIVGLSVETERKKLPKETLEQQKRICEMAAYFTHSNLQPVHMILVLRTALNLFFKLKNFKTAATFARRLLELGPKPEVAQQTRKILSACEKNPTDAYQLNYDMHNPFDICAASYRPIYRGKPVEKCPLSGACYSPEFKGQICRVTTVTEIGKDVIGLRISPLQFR
UniProt P53618: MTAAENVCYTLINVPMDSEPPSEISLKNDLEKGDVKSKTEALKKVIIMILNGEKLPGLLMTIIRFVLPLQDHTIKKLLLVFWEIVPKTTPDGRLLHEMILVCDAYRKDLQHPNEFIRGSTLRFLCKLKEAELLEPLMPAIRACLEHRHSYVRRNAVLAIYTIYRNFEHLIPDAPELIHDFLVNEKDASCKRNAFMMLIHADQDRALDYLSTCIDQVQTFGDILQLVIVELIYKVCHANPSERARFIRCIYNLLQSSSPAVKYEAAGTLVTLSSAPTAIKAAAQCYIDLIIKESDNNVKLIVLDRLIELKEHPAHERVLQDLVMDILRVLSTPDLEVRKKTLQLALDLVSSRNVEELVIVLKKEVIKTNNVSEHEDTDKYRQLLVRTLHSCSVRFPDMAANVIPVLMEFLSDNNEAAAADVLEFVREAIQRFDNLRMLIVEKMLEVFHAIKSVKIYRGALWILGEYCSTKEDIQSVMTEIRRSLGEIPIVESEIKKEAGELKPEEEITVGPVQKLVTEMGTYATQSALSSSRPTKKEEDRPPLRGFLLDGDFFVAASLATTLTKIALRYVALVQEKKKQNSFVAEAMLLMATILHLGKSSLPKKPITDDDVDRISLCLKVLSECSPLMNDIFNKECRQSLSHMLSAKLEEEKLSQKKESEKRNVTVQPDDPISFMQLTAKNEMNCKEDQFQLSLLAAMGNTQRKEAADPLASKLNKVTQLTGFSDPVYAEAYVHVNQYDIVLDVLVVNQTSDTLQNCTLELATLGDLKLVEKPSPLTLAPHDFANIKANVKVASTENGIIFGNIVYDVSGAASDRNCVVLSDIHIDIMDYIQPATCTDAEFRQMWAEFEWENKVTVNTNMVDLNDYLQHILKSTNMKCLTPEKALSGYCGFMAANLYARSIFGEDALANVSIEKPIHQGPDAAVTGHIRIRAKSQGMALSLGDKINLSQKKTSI
UniProt Q86VP6: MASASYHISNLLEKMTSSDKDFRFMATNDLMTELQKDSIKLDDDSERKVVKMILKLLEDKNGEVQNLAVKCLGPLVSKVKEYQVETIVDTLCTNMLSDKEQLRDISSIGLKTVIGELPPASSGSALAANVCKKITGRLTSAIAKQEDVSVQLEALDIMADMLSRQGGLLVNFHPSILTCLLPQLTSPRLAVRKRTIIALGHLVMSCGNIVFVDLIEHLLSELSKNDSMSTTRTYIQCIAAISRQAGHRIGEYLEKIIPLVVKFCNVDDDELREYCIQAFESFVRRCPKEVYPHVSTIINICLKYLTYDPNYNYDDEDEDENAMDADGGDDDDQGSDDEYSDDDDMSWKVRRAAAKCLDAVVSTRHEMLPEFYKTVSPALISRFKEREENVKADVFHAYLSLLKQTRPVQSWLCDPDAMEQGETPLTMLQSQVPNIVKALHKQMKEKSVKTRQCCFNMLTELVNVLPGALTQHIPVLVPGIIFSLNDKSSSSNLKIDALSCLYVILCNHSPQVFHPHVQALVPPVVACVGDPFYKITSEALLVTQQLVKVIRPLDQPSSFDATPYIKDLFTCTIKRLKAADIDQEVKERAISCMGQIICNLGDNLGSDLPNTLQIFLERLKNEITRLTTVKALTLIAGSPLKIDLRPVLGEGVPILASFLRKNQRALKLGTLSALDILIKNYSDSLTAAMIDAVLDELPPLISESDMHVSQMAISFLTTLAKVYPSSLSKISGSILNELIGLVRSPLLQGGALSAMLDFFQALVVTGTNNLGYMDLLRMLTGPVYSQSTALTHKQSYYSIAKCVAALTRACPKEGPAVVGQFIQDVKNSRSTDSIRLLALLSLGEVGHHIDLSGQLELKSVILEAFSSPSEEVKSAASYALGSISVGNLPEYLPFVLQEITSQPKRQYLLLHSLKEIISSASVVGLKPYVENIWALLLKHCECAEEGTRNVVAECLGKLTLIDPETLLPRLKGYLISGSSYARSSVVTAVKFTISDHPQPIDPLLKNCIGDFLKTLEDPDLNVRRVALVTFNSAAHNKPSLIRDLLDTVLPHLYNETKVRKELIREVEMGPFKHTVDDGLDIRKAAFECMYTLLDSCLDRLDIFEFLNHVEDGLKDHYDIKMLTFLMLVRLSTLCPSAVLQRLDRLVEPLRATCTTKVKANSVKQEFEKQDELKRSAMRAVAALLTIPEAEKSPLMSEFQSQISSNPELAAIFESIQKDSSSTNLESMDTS
UniProt O14818: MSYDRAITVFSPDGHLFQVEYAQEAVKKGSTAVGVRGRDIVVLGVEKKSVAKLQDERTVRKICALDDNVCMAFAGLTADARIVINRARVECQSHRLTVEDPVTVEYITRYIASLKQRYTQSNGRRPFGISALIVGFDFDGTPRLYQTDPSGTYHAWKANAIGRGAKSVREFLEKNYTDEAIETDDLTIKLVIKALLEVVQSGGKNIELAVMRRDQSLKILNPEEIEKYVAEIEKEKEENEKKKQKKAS
UniProt P27824, residues 21-592: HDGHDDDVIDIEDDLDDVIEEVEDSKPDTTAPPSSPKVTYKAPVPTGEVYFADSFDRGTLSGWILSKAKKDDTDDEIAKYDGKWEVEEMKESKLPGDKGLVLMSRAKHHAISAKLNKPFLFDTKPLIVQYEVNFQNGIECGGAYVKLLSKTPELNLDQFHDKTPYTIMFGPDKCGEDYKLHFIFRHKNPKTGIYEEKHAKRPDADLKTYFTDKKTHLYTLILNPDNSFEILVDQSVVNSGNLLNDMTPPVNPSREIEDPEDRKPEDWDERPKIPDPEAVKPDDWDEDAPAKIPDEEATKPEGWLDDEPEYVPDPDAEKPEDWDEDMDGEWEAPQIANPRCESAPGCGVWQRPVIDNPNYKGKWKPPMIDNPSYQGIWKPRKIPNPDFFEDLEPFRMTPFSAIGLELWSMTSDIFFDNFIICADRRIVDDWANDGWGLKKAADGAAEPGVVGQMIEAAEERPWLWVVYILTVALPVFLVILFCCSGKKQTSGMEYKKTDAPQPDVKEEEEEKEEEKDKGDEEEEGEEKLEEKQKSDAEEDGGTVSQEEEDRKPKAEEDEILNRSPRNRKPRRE

Key:
[1] = target: eYFP-ATZ (enhanced YFP-tagged α1-antitrypsin Z, E342K), expressed in Huh7.5 cells (human) (UniProt P01009); assay: affinity purification with mass spectrometry; eYFP-ATZ precipitated with GFP-Trap agarose from 1% Triton X-100 lysates (4 mg) of transfected Huh7.5 cells (CRT KO, CNX KO and their WT controls), 24 h after transfection; cells cross-linked with 2 mM DTBP before lysis; on-bead trypsin digest, LC-MS/MS; cutoff >= 8 PSM in WT, three replicates
[2] = target: eYFP-ATZ (enhanced YFP-tagged α1-antitrypsin Z, E342K), expressed in Huh7.5 cells (human) (UniProt P01009); assay: as above; remark: listed apart in the source

| Molecule | binding [1] | binding [2] |
| --- | --- | --- |
| HSPA4, endogenous in Huh7.5 cells (from UniProt P34932 1-840) | binds |  |
| PDIA3 (ERp57), endogenous in Huh7.5 cells (from UniProt P30101 25-505) | binds |  |
| binding immunoglobulin protein (BiP, HSPA5), endogenous in Huh7.5 cells (from UniProt P11021 19-654) | binds |  |
| α-COP, endogenous in Huh7.5 cells (from UniProt P53621 1-1224) | binds |  |
| β-COP, endogenous in Huh7.5 cells (from UniProt P53618 1-953) | binds |  |
| calmegin (CLGN), endogenous in Huh7.5 cells (protein, UniProt O14967 20-610) EFMDDDVETEDFEENSEEIDVNESELSSEIKYKTPQPIGEVYFAETFDSGRLAGWVLSKAKKDDMDEEISIYDGRWEIEELKENQVPGDRGLVLKSRAKHHAISAVLAKPFIFADKPLIVQYEVNFQDGIDCGGAYIKLLADTDDLILENFYDKTSYIIMFGPDKCGEDYKLHFIFRHKHPKTGVFEEKHAKPPDVDLKKFFTDRKTHLYTLVMNPDDTFEVLVDQTVVNKGSLLEDVVPPIKPPKEIEDPNDKKPEEWDERAKIPDPSAVKPEDWDESEPAQIEDSSVVKPAGWLDDEPKFIPDPNAEKPDDWNEDTDGEWEAPQILNPACRIGCGEWKPPMIDNPKYKGVWRPPLVDNPNYQGIWSPRKIPNPDYFEDDHPFLLTSFSALGLELWSMTSDIYFDNFIICSEKEVADHWAADGWRWKIMIANANKPGVLKQLMAAAEGHPWLWLIYLVTAGVPIALITSFCWPRKVKKKHKDTEYKKTDICIPQTKGVLEQEEKEEKAALEKPMDLEEEKKQNDGEMLEKEEESEPEEKSEEEIEIIEGQEESNQSNKSGSEDEMKEADESTGSGDGPIKSVRKRRVRKD |  | binds |

Next, values leading:

| binding [1] | binding [2] | Molecule |
| --- | --- | --- |
| binds |  | CAND1, endogenous in Huh7.5 cells (from UniProt Q86VP6 1-1230) |
| binds |  | PMSA7 (as printed), endogenous in Huh7.5 cells (from UniProt O14818 1-248) |
| binds |  | calnexin (CNX), endogenous in Huh7.5 cells (from UniProt P27824 21-592) |
